Reference: PubChem BioAssay AID1259405 (NCATS, 2018)
Here is a random part of about 50,000 deposited reagents. About 4,000 of all reagents (8%) count as active. 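Mouse siRNA library applied to hamster cells; one well for each siRNA.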 Reagents against one gene are numbered here.

- Purpose: 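Knock-downs that lift recombinant protein yield in hamster ovary cells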 (primary screen)
- Cell system: Chinese hamster CHO-K1 ovary cells with stable secreted eGFP expression
- Reagents: single siRNA against mouse genes, 0.8 pmol siRNA per well (2 µl of 400 nM stock)
- Timing: 3 days
- Detection: 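Percent of the per-plate non-targeting control median for intracellular GFP per well by laser scanning cytometry and for cell viability by ATP luminescence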
- Scale: GFP, % of control: higher = more GFP per well, higher productivity; viability (ATP), % of control: higher = more viable cells (more ATP)
- Hit rule: 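a knock-down is called active if GFP reaches 120% or more of non-targeting control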

no.	target gene	reagent	GFP, % of control	viability (ATP), % of control	Outcome
1	Or5m8 (olfactory receptor family 5 subfamily M member 8)	1	76.9	69	inactive
2	Or5m8 (olfactory receptor family 5 subfamily M member 8)	2	89.3	64.9	inactive
3	Or5m8 (olfactory receptor family 5 subfamily M member 8)	3	67.4	98.4	inactive
4	Tet3 (tet methylcytosine dioxygenase 3)	1	79.9	52.8	inactive
5	Tet3 (tet methylcytosine dioxygenase 3)	2	61.4	83.4	inactive
6	Tet3 (tet methylcytosine dioxygenase 3)	3	73.5	82.1	inactive
7	Tut1 (terminal uridylyl transferase 1, U6 snRNA-specific)	1	90.1	93.5	inactive
8	Tut1 (terminal uridylyl transferase 1, U6 snRNA-specific)	2	70.5	90.8	inactive
9	Tut1 (terminal uridylyl transferase 1, U6 snRNA-specific)	3	75.3	90.9	inactive
10	Or9e1 (olfactory receptor family 9 subfamily E member 1)	1	43.6	39.6	inactive
11	Or9e1 (olfactory receptor family 9 subfamily E member 1)	2	88.9	71	inactive
12	Or9e1 (olfactory receptor family 9 subfamily E member 1)	3	54.7	60.6	inactive
13	Fgl1 (fibrinogen-like protein 1)	1	94.7	65.3	inactive
14	Fgl1 (fibrinogen-like protein 1)	2	113	88.1	inactive
15	Fgl1 (fibrinogen-like protein 1)	3	103	109	inactive
16	Cfdp1 (craniofacial development protein 1)	1	74.7	71.7	inactive
17	Cfdp1 (craniofacial development protein 1)	2	40.7	55.4	inactive
18	Cfdp1 (craniofacial development protein 1)	3	117	121	inactive
19	Nxf7 (nuclear RNA export factor 7)	1	51.4	65.1	inactive
20	Nxf7 (nuclear RNA export factor 7)	2	74	51	inactive
21	Nxf7 (nuclear RNA export factor 7)	3	134	81.8	active
22	Cyp4f14 (cytochrome P450, family 4, subfamily f, polypeptide 14)	1	80	82.9	inactive
23	Cyp4f14 (cytochrome P450, family 4, subfamily f, polypeptide 14)	2	110	93.7	inactive
24	Cyp4f14 (cytochrome P450, family 4, subfamily f, polypeptide 14)	3	94	81.9	inactive
25	Gspt2 (G1 to S phase transition 2)	1	72.3	52.7	inactive
26	Gspt2 (G1 to S phase transition 2)	2	106	87.4	inactive
27	Gspt2 (G1 to S phase transition 2)	3	99.2	80.5	inactive
28	Slmap (sarcolemma associated protein)	1	69	72	inactive
29	Slmap (sarcolemma associated protein)	2	100	58.8	inactive
30	Slmap (sarcolemma associated protein)	3	66.4	71.3	inactive
31	Bhmt2 (betaine-homocysteine methyltransferase 2)	1	101	79.2	inactive
32	Bhmt2 (betaine-homocysteine methyltransferase 2)	2	47.9	69.5	inactive
33	Bhmt2 (betaine-homocysteine methyltransferase 2)	3	69.5	94.2	inactive
34	Zfp52 (zinc finger protein 52)	1	39.1	46.5	inactive
35	Zfp52 (zinc finger protein 52)	2	61.5	70.4	inactive
36	Zfp52 (zinc finger protein 52)	3	85.3	59.7	inactive
37	Gask1b (golgi associated kinase 1B)	1	69.5	72.2	inactive
38	Gask1b (golgi associated kinase 1B)	2	47.5	74.5	inactive
39	Gask1b (golgi associated kinase 1B)	3	67.5	57.5	inactive
40	Or5w1b (olfactory receptor family 5 subfamily W member 1B)	1	66.4	77.6	inactive
41	Or5w1b (olfactory receptor family 5 subfamily W member 1B)	2	62.2	53.2	inactive
42	Or5w1b (olfactory receptor family 5 subfamily W member 1B)	3	30.6	28.9	inactive

Hits, of those listed so far:
target gene	reagent	GFP, % of control	viability (ATP), % of control	Outcome
Nxf7 (nuclear RNA export factor 7)	3	134	81.8	active

Next results follow.
no.	target gene	reagent	GFP, % of control	viability (ATP), % of control	Outcome
43	Dpyd (dihydropyrimidine dehydrogenase)	1	102	90.7	inactive
44	Dpyd (dihydropyrimidine dehydrogenase)	2	64.6	86.1	inactive
45	Dpyd (dihydropyrimidine dehydrogenase)	3	86.4	84.2	inactive
46	Nol4 (nucleolar protein 4)	1	106	82.3	inactive
47	Nol4 (nucleolar protein 4)	2	61.7	27.3	inactive
48	Nol4 (nucleolar protein 4)	3	75.1	63.3	inactive
49	Mtarc2 (mitochondrial amidoxime reducing component 2)	1	58.7	54.8	inactive
50	Mtarc2 (mitochondrial amidoxime reducing component 2)	2	49.7	49.7	inactive
51	Mtarc2 (mitochondrial amidoxime reducing component 2)	3	79.6	85.6	inactive
52	Ccl22 (C-C motif chemokine ligand 22)	1	76.1	102	inactive
53	Ccl22 (C-C motif chemokine ligand 22)	2	53.6	74.5	inactive
54	Fam187b (family with sequence similarity 187, member B)	1	110	103	inactive
55	Fam187b (family with sequence similarity 187, member B)	2	94.9	80.2	inactive
56	Fam187b (family with sequence similarity 187, member B)	3	98.9	96.1	inactive
57	Akap9 (A kinase anchor protein 9)	1	20.2	17.5	inactive
58	Akap9 (A kinase anchor protein 9)	2	92.7	64.6	inactive
59	Akap9 (A kinase anchor protein 9)	3	106	106	inactive
60	Ube4b (ubiquitination factor E4B)	1	89.3	94.6	inactive
61	Ube4b (ubiquitination factor E4B)	2	73.6	85.2	inactive
62	Ube4b (ubiquitination factor E4B)	3	59.3	68.5	inactive
63	Pnliprp1 (pancreatic lipase related protein 1)	1	121	99	active
64	Pnliprp1 (pancreatic lipase related protein 1)	2	142	129	active
65	Pnliprp1 (pancreatic lipase related protein 1)	3	75.1	85.7	inactive
66	Otor (otoraplin)	1	86.3	55	inactive
67	Otor (otoraplin)	2	21.1	13.3	inactive
68	Otor (otoraplin)	3	52.3	73.9	inactive
69	Fadd (Fas associated via death domain)	1	83.3	85.1	inactive
70	Fadd (Fas associated via death domain)	2	55.3	67.6	inactive
71	Fadd (Fas associated via death domain)	3	46.4	22.4	inactive
72	Pelp1 (proline, glutamic acid and leucine rich protein 1)	1	106	79	inactive
73	Pelp1 (proline, glutamic acid and leucine rich protein 1)	2	99.6	82.6	inactive
74	Pelp1 (proline, glutamic acid and leucine rich protein 1)	3	73.2	56.5	inactive
75	Gfus (GDP-L-fucose synthase)	1	122	78	active
76	Gfus (GDP-L-fucose synthase)	2	73	74	inactive
77	Sugp2 (SURP and G patch domain containing 2)	1	50.8	72.8	inactive
78	Sugp2 (SURP and G patch domain containing 2)	2	87.3	70.6	inactive
79	Sugp2 (SURP and G patch domain containing 2)	3	71.5	62	inactive
80	Clstn3 (calsyntenin 3)	1	82.1	62.3	inactive
81	Clstn3 (calsyntenin 3)	2	59.4	59.2	inactive
82	Cyp24a1 (cytochrome P450, family 24, subfamily a, polypeptide 1)	1	92.6	76.2	inactive
83	Cyp24a1 (cytochrome P450, family 24, subfamily a, polypeptide 1)	2	132	93.3	active
84	Cyp24a1 (cytochrome P450, family 24, subfamily a, polypeptide 1)	3	82.8	59.4	inactive
85	Fcho2 (FCH domain only 2)	1	48.1	58.4	inactive
86	Fcho2 (FCH domain only 2)	2	83.9	81.5	inactive
87	Fcho2 (FCH domain only 2)	3	84.8	76.4	inactive
88	Ghitm (growth hormone inducible transmembrane protein)	1	64.2	94	inactive
89	Ghitm (growth hormone inducible transmembrane protein)	2	89.1	145	inactive
90	Ghitm (growth hormone inducible transmembrane protein)	3	72.4	66	inactive
91	Lyplal1 (lysophospholipase-like 1)	1	75.3	89.3	inactive
92	Lyplal1 (lysophospholipase-like 1)	2	62.8	86.1	inactive
93	Lyplal1 (lysophospholipase-like 1)	3	69	88.5	inactive
94	Erp44 (endoplasmic reticulum protein 44)	1	70.2	81.4	inactive
95	Erp44 (endoplasmic reticulum protein 44)	2	80.2	93.5	inactive
96	Erp44 (endoplasmic reticulum protein 44)	3	27.7	37.6	inactive
97	Hic1 (hypermethylated in cancer 1)	1	102	87.5	inactive
98	Hic1 (hypermethylated in cancer 1)	2	79.6	72.3	inactive
99	Hic1 (hypermethylated in cancer 1)	3	87.8	69	inactive
100	Adat2 (adenosine deaminase, tRNA-specific 2)	1	28.4	42.3	inactive
101	Adat2 (adenosine deaminase, tRNA-specific 2)	2	87.7	61.8	inactive
102	Adat2 (adenosine deaminase, tRNA-specific 2)	3	112	87.1	inactive
103	Tcf20 (transcription factor 20)	1	109	93.4	inactive
104	Tcf20 (transcription factor 20)	2	78.5	81.1	inactive
105	Tcf20 (transcription factor 20)	3	85.2	96.4	inactive
106	Pcdh17 (protocadherin 17)	1	26.8	63.8	inactive
107	Pcdh17 (protocadherin 17)	2	102	85.6	inactive
